Measurements taken from PubChem BioAssay AID1508600 (Functional Genomics Laboratory (NCATS/FGL), 2020).
Out of some 53,000 sequences screened, about 3,700 (7%) were called active.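 The calls were made as follows: active = gene knockdowns whose robust z-score for IL-1 alpha signal is at least 2 or at most -2, so actives lie on both sides; inactive = the rest.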 The list shows a part of the results.

Experiment: Components of the Cytosolic LPS Sensing Pathway: Gene Identification via Genome-wide siRNA Screen;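 also: robust z of the log signal after scaling to non-targeting control siRNA wells of the plate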
Conditions: RAW264.7 macrophages, IL-1a HTRF, actives lie on both sides, screened at 100 nM (by protocol), cells primed 5 h with Pam3CSK4 first
In short: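 IL-1a HTRF of supernatants after 24 hour LipidA transfection of Pam3CSK4-primed (5 hours) RAW264.7 cells, 48h post-siRNA transfection (100 nM). Scores: percent of plate negative-control median, then log-based robust z-score.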

| Sequence | z-score |
| --- | --- |
| GCAAAUUCCAGUGAAAGCCTT against Papola | inactive: 1.12 |
| GGAUUUUGAAGAGGAGUCGTT against Mpp3 | inactive: -1.23 |
| GGAAUUCAUCCACAUACUGTT against Actr10 | inactive: 1.08 |
| GGAUGUAUUUUGGAGAACGTT against Fam241a | inactive: 0.158 |
| GGUGAAGGCCUCCAUAUAUTT against 9330175E14Rik | inactive: 1.07 |
| GGCUUCGACGUGACUCAUCTT against Tcte2 | inactive: -0.906 |
| GGGAAAACACAAAGAAGAATT against Angpt1 | inactive: 0.307 |
| GGAGCUCCUUAUGAAACUGTT against Tsfm | inactive: -0.375 |
| CGAGAAUUUUACAUGAGAGTT against Mthfd1l | inactive: -0.632 |
| GUCAAGCUGGCCAAACAUATT against Rps19 | inactive: -0.437 |
| CCUCUACAUAUUAUGGAAATT against Dpp9 | inactive: 0.0926 |
| CCAAUAUGAGACCAUCAUUTT against Sv2b | inactive: 0.385 |
| GGAAGCACGUUGGAAGGAUTT against Olfr845 | inactive: 0.461 |
| GCAGGUUUGUAUUGUAACUTT against Abi1 | inactive: -0.302 |
| GGAAUGCCGGAUUGCUCACTT against Fam76a | inactive: 1.2 |
| GGCCAUGUUCCACACAUUATT against Grm1 | inactive: 1.49 |
| CCACAUCCCACGGGAUCUUTT against Fam178b | inactive: 0.122 |
| GGAAUCACAAGGUAUUUUCTT against Spo11 | inactive: -0.237 |
| CGAAUUUACAAAGAACUUGTT against Cldn34b3 | inactive: -0.487 |
| CGCACCUUUCUUUGGAAUGTT against Rab1b | inactive: 1.72 |
| GGCCAAACAGCCAAAUUCUTT against Rps23 | inactive: 0.402 |
| GACAAGAAGCAGAUGACUGTT against Olig2 | inactive: -0.142 |

| Sequence | z-score |
| --- | --- |
| GGAAUGAUUUUUGUUUGCUTT against Sf3b3 | inactive: -1.6 |
| GGAAGCUGUGGAGAAACUATT against Acox2 | active: 2.22 |
| CCUGAAAAAAUUUAUCGCCTT against Pcgf3 | inactive: -0.363 |
| GGUGCUGGAGUUGACCAGUTT against Cebpa | inactive: -0.0905 |
| GCGUAAAUAAGUGUCAGAATT against Emp2 | inactive: 0.295 |
| GCAGAUGUGGCAUCUUCCATT against Arhgap35 | inactive: -0.642 |
| GGCAUAGCUGGUCUGAAGATT against Slc3a2 | active: 2.06 |
| GGCUAUGGAGUUCACCACATT against Krtap5-5 | active: -2.66 |
| GCCAGGUCCUCAAAUGAAATT against Vps37d | inactive: 0.0635 |
| GCUACAAAUGUGUACCCUUTT against Il34 | inactive: -1.05 |
| GGAAGAGGACACAUUAGGCTT against Gtsf1l | inactive: 0.11 |
| GGAAAAAAUAAUGGUGACATT against Fcrls | inactive: -0.352 |
| GGAGCAGCUGUCCAUCAAUTT against Sart3 | inactive: 0.632 |
| GGAAAUUACCUUGAUGAUGTT against Anxa4 | inactive: -1.59 |
| GCUCAACCAGUGUUAAAACTT against F2rl1 | inactive: -0.371 |
| GCGGGACAUAUGAAUCUACTT against Il23a | inactive: 1.13 |
| GCAGUUCAUACUCUCUGCATT against Olfr919 | inactive: -0.958 |
| CGUGAAUCACUAUACAUAATT against A630052C17Rik | inactive: -1.39 |
| CCUGGUAACAGUCAUAAAUTT against Lhfpl2 | inactive: -0.0371 |
| CGGUCUCUUCCUAAGUAAUTT against Cad | inactive: 0.00666 |
| GGAUAAACCUAUGAAUGAATT against Hsf3 | inactive: 0.763 |
| CCAUGUGAUAUAAAGAGGATT against Apbb2 | inactive: -0.935 |

| Sequence | z-score |
| --- | --- |
| GGAGAAACCAGGAUCUAUUTT against Rnf14 | active: 2.22 |
| GGCUGCAUAAAAGCAUUAATT against Aldh1a1 | inactive: -1.24 |
| GGACUCAUAUCCUUACAUATT against AI854703 | inactive: -0.0584 |
| CCAAUCCUGAAUAAUGAGATT against Spag17 | inactive: 0.0419 |
| GCUACGUUACUAGGCAGUGTT against Mapk8ip2 | inactive: 1.44 |
| CCUAUGCUGAAAUUCUUGATT against Ndufc2 | inactive: 0.0388 |
| GCUCUAUUGUCUGGUAUUGTT against Vmn2r81 | inactive: 0.441 |
| GGAUAUGCCAGAGACACUGTT against Carf | inactive: -0.118 |
| CACUCAAAGUUAUAUCAAGTT against Nlrp4e | inactive: 1.27 |
| GGCACGAUUUGCUUAUUUUTT against Usf2 | inactive: 0.0682 |
| GGAAUCGAGAUCUUAAACATT against Itih1 | inactive: 0.27 |
| UUGGAACACCCUUUCUCAATT against Olfr1206 | inactive: 0.00737 |
| UCAAACUAGGUGCUGUUGUTT against Olfr584 | inactive: 0.998 |
| CGACCACAUGAGGAUGCAUTT against Zbtb20 | inactive: -0.974 |
| GGAGUGGAAGAGAAAAUUUTT against Cts8 | inactive: -0.0871 |
| GCUACAGCUUCAAUUAAAUTT against Birc6 | inactive: 0.135 |
| GGUGUUCCAGGUGAGAAAATT against Rps6kb2 | inactive: -0.296 |
| GGCACAAAAUGACCAAAAUTT against Npy2r | inactive: -1.02 |
| GUGCUAGAAUACUUGACAGTT against H2ac1 | inactive: -1.5 |
| GGGCAGAAACGGAUAAUGGTT against Fgl1 | inactive: 0.667 |
| CGACUCUUACCAACCUUUUTT against Lhx2 | inactive: 0.477 |
| GGAGACAAAGACUUGUAAGTT against Triml1 | inactive: -0.39 |

32 consecutive records already listed, quoted:

| Sequence | z-score |
| --- | --- |
| GGAGCAGCUGUCCAUCAAUTT against Sart3 | inactive: 0.632 |
| GGAAAUUACCUUGAUGAUGTT against Anxa4 | inactive: -1.59 |
| GCUCAACCAGUGUUAAAACTT against F2rl1 | inactive: -0.371 |
| GCGGGACAUAUGAAUCUACTT against Il23a | inactive: 1.13 |
| GCAGUUCAUACUCUCUGCATT against Olfr919 | inactive: -0.958 |
| CGUGAAUCACUAUACAUAATT against A630052C17Rik | inactive: -1.39 |
| CCUGGUAACAGUCAUAAAUTT against Lhfpl2 | inactive: -0.0371 |
| CGGUCUCUUCCUAAGUAAUTT against Cad | inactive: 0.00666 |
| GGAUAAACCUAUGAAUGAATT against Hsf3 | inactive: 0.763 |
| CCAUGUGAUAUAAAGAGGATT against Apbb2 | inactive: -0.935 |
| GGAGAAACCAGGAUCUAUUTT against Rnf14 | active: 2.22 |
| GGCUGCAUAAAAGCAUUAATT against Aldh1a1 | inactive: -1.24 |
| GGACUCAUAUCCUUACAUATT against AI854703 | inactive: -0.0584 |
| CCAAUCCUGAAUAAUGAGATT against Spag17 | inactive: 0.0419 |
| GCUACGUUACUAGGCAGUGTT against Mapk8ip2 | inactive: 1.44 |
| CCUAUGCUGAAAUUCUUGATT against Ndufc2 | inactive: 0.0388 |
| GCUCUAUUGUCUGGUAUUGTT against Vmn2r81 | inactive: 0.441 |
| GGAUAUGCCAGAGACACUGTT against Carf | inactive: -0.118 |
| CACUCAAAGUUAUAUCAAGTT against Nlrp4e | inactive: 1.27 |
| GGCACGAUUUGCUUAUUUUTT against Usf2 | inactive: 0.0682 |
| GGAAUCGAGAUCUUAAACATT against Itih1 | inactive: 0.27 |
| UUGGAACACCCUUUCUCAATT against Olfr1206 | inactive: 0.00737 |
| UCAAACUAGGUGCUGUUGUTT against Olfr584 | inactive: 0.998 |
| CGACCACAUGAGGAUGCAUTT against Zbtb20 | inactive: -0.974 |
| GGAGUGGAAGAGAAAAUUUTT against Cts8 | inactive: -0.0871 |
| GCUACAGCUUCAAUUAAAUTT against Birc6 | inactive: 0.135 |
| GGUGUUCCAGGUGAGAAAATT against Rps6kb2 | inactive: -0.296 |
| GGCACAAAAUGACCAAAAUTT against Npy2r | inactive: -1.02 |
| GUGCUAGAAUACUUGACAGTT against H2ac1 | inactive: -1.5 |
| GGGCAGAAACGGAUAAUGGTT against Fgl1 | inactive: 0.667 |
| CGACUCUUACCAACCUUUUTT against Lhx2 | inactive: 0.477 |
| GGAGACAAAGACUUGUAAGTT against Triml1 | inactive: -0.39 |

The listing continues:

| Sequence | z-score |
| --- | --- |
| GGCCAUUUGAAUCUUCUUUTT against Pigr | inactive: -0.222 |
| GUCCAUUGCUUAGUGCGAUTT against Olfr961 | inactive: 0.371 |
| GCAGUCGCUUUGUUUUAUATT against Olfr1204 | inactive: -0.225 |
| GGUAGAGCGACAACUGGAUTT against Mcrip2 | inactive: -1.07 |
| GGAGAAUAGGAAUGUUUUUTT against Zfp112 | inactive: 1.32 |
| GGAGACAAACUCAAAACUGTT against Lyplal1 | inactive: -1.12 |
| CCAACAAAAGCCUAUUCGGTT against Hsh2d | inactive: -0.169 |
| GGAUUAAGUGCUCUUGGGUTT against Plscr4 | inactive: -0.357 |
| GGAAUCGGUGUAUUCGUUUTT against Sectm1b | inactive: 0.593 |
| GGCCAACUUGCUGGUAUUGTT against Irgq | inactive: -1.19 |
| GGAUUAAGGACAGUUUGAUTT against Mrpl16 | inactive: 0.401 |
| GGCCAGUGGUUGUCUUAUGTT against Cyp2g1 | inactive: -0.621 |
| GCCAGAAUGUAUCCACGUGTT against Hspa12a | inactive: 1.58 |
| GGAACAGCAUUGGAUGAAGTT against Haus3 | inactive: 1.58 |
| CCUGAGCAUGAUGUGAAAUTT against Lgi4 | inactive: -1.36 |
| GGAUCCUCUCAUUAAGAAATT against Gabra1 | inactive: -1.15 |
| CCAUCUUGAAGAUUCGUUCTT against Olfr486 | inactive: -1.24 |
| GGUGAAGACACUCAAGGCUTT against Junb | inactive: 1.21 |
| GGUUCCUAAAGUAAAAACCTT against Gnpnat1 | inactive: 1.04 |
| GGCAGUUGUGAACUUUCUCTT against Telo2 | inactive: 0.243 |
| CGAAACCAUACCAGUUACUTT against Pth1r | inactive: 1.37 |
| GCUGUAGUUUCAGUAGAUUTT against Rnf168 | inactive: -0.185 |

| Sequence | z-score |
| --- | --- |
| GGCUGACCACAUUAUAAGUTT against Ppox | inactive: 0.165 |
| GGCCAGAGAAAUCUUGGUATT against Ppp4c | inactive: -0.877 |
| GGUUCACAGAUGAUACCUUTT against Rab18 | active: 4.59 |
| GCUUCUACUCCAUAUUACGTT against Rbm4 | inactive: -0.21 |
| GGUUGGUGAACUUGGAGGUTT against Hspa1a | inactive: 1.41 |
| GGACGAGAAGCAAACUAUGTT against Pi16 | inactive: -0.434 |
| GGAAACCUGGGCUUAGUCUTT against Olfr974 | inactive: 0.619 |
| GCUAAUAGGAGGACUUGACTT against Glrx3 | inactive: -0.938 |
| GGCAGACAUAAGGCUUUCUTT against Olfr1056 | inactive: -0.754 |
| GGUCACACAGACAUUGACATT against Tnn | inactive: 0.956 |
| GGAAACCUUUACCAUAAACTT against Epdr1 | active: -2.35 |
| GGCUCAAUCCAAGUCUUCATT against Olfr173 | inactive: 0.895 |
| GUUUUGGAUUCCUCUGUCATT against Olfr1097 | inactive: -1.69 |
| GGAUAUGCUGAGGUGGUGGTT against Cpsf7 | inactive: -1.07 |
| CCAGGGUAAAAUAAACGAATT against Ostf1 | inactive: -1.29 |
| GCACAAAUGGGAAUACGACTT against Klhl36 | inactive: -0.94 |
| CCUCAAUCAAAAUGUAAGUTT against Atp6v0a2 | inactive: 0.456 |
| CGGUACAUCAUUGCUGUCATT against Slc17a8 | active: -2.22 |
| GGGCAUCUUCCAUCUUCAATT against 4931428L18Rik | inactive: -0.502 |
